Measurements from PMC11720235.
These are yes or no findings as the source states them, for the method shown. For part of these data: Binding seen in cells or lysates may run through a third protein. Some entries that bind do so weakly or less than the wild type. Tags and fused reporters may be left off the sequences shown.

T1: NtCDKG;2 (N. tabacum Cyclin-Dependent Kinase G;2), fused to the GAL4 DNA binding domain (Nicotiana tabacum)
T1 sequence: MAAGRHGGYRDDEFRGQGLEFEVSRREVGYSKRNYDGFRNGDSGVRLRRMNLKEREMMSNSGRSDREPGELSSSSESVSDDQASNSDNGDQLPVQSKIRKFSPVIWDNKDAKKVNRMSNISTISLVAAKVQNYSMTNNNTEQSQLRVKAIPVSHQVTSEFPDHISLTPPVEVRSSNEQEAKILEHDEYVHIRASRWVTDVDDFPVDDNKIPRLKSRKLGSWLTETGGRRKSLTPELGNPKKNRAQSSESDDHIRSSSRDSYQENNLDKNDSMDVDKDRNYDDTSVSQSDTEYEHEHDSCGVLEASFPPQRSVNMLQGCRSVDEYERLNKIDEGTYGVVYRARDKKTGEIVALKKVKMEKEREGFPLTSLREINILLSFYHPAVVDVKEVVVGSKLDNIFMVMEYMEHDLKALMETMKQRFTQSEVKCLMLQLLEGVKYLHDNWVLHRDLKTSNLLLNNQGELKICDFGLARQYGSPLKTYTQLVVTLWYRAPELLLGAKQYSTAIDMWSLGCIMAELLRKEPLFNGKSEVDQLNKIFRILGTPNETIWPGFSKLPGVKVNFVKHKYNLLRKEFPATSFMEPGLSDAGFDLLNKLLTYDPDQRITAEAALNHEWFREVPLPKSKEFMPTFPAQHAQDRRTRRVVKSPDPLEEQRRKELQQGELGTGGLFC

T2: NtCDKG;2–cGFP (Nicotiana tabacum)
T2 sequence: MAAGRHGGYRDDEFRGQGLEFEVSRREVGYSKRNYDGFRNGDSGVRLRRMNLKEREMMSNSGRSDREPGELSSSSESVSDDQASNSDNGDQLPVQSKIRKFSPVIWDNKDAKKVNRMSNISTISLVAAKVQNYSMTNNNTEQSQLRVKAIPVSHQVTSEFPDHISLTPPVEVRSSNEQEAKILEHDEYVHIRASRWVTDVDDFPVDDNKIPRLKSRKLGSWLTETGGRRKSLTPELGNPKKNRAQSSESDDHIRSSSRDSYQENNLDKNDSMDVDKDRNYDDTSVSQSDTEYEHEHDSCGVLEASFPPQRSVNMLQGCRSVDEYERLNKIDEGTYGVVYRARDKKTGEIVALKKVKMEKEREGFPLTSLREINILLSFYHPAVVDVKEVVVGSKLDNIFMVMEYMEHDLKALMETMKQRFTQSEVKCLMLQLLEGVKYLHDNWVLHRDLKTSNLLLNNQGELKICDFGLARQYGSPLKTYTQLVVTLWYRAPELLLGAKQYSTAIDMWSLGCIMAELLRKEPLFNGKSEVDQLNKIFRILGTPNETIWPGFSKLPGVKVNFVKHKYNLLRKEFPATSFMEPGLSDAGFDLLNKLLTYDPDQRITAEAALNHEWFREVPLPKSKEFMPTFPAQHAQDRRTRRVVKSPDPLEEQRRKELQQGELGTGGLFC


Experiments:
[1] = molecular target: T1, NtCDKG;2 (N. tabacum Cyclin-Dependent Kinase G;2), fused to the GAL4 DNA binding domain (Nicotiana tabacum); assay: two-hybrid; screen of a N. tabacum stigma/style cDNA library with NtCDKG;2 in pDEST32 as bait; positive clones Sanger-sequenced
[2] = molecular target: T1, NtCDKG;2 (N. tabacum Cyclin-Dependent Kinase G;2), fused to the GAL4 DNA binding domain (Nicotiana tabacum); assay: two-hybrid; pairwise (binary) test in yeast PJ69-4α; DBD-NtCDKG;2 (pDEST32) with AD fusions (pDEST22); growth on SD without leucine, tryptophan and histidine, 30 °C, 2-3 days; 1 mM 3-amino-1,2,4-triazole for NtRanBP1
[3] = molecular target: T2, NtCDKG;2–cGFP (Nicotiana tabacum); assay: split reporter; BiFC; NtCDKG;2-cGFP and NtRanBP1-nGFP co-expressed transiently in epidermal cells of N. benthamiana leaves, 48 to 72 h; confocal microscopy; signal in the nucleus

binding [1] | binding [2] | binding [3] | Binder
binds | binds |  | NtRanBP1-1a (Ran-Binding Protein 1 of N. tabacum), fused to the GAL4 activation domain (protein, UniProt A0A1S4BK62 1-220) MASSAEPKLEKKEVEEENPSATADDEDTGAQVAPIVKLQEVTVSTGEENEDVLLDLKSKLYRFDKEGNAWKERGAGTVKLLKHKETAKVRLVMRQSKTLKICANHLVLPTMSIQEHAGNEKSCVWHAADFADGELKEETFCIRFASIENCKSFKEKVEEIAESQQTKSEESEGAAAAATELIEKLSVESKDKENKAEDKEAPAPTEEKEDKNEENAVEKN
 |  | binds | NtRanBP1–nGFP (protein, UniProt A0A1S4BK62 1-220) MASSAEPKLEKKEVEEENPSATADDEDTGAQVAPIVKLQEVTVSTGEENEDVLLDLKSKLYRFDKEGNAWKERGAGTVKLLKHKETAKVRLVMRQSKTLKICANHLVLPTMSIQEHAGNEKSCVWHAADFADGELKEETFCIRFASIENCKSFKEKVEEIAESQQTKSEESEGAAAAATELIEKLSVESKDKENKAEDKEAPAPTEEKEDKNEENAVEKN
